Results are given in words; binding and its absence hold for the method and conditions named. In cells and extracts the contact can be indirect. Some binding calls cover weakened binding; strength is not graded here. For some assays here: Sequences can lack the tags named with a protein.
T1: GFP-Vas (Vasa with EGFP, endogenous knock-in, vas^EGFP.KI) (Drosophila (endogenous in ovaries)) (UniProt P09052)
T1 sequence: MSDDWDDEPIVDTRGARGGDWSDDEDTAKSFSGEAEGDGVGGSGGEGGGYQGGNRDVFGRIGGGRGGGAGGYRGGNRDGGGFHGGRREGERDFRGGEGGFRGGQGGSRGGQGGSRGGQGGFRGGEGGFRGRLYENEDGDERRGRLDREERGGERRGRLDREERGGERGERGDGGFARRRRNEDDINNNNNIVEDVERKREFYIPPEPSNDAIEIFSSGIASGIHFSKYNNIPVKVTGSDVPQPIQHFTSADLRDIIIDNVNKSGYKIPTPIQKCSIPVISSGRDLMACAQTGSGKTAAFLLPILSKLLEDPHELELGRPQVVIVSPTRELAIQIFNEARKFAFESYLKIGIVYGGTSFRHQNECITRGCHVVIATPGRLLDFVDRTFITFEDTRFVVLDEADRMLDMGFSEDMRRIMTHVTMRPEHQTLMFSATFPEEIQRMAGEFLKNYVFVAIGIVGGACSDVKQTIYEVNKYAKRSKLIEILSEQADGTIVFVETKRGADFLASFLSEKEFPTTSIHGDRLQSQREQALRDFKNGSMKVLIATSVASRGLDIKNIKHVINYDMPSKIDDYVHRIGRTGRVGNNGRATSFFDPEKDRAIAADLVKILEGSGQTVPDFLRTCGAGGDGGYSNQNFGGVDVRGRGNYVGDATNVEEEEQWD

T2: Spn-E-mKate2 (Spindle-E with mKate2, endogenous knock-in, spn-E^mKate2.KI) (Drosophila (endogenous in ovaries)) (UniProt Q9VF26)
T2 sequence: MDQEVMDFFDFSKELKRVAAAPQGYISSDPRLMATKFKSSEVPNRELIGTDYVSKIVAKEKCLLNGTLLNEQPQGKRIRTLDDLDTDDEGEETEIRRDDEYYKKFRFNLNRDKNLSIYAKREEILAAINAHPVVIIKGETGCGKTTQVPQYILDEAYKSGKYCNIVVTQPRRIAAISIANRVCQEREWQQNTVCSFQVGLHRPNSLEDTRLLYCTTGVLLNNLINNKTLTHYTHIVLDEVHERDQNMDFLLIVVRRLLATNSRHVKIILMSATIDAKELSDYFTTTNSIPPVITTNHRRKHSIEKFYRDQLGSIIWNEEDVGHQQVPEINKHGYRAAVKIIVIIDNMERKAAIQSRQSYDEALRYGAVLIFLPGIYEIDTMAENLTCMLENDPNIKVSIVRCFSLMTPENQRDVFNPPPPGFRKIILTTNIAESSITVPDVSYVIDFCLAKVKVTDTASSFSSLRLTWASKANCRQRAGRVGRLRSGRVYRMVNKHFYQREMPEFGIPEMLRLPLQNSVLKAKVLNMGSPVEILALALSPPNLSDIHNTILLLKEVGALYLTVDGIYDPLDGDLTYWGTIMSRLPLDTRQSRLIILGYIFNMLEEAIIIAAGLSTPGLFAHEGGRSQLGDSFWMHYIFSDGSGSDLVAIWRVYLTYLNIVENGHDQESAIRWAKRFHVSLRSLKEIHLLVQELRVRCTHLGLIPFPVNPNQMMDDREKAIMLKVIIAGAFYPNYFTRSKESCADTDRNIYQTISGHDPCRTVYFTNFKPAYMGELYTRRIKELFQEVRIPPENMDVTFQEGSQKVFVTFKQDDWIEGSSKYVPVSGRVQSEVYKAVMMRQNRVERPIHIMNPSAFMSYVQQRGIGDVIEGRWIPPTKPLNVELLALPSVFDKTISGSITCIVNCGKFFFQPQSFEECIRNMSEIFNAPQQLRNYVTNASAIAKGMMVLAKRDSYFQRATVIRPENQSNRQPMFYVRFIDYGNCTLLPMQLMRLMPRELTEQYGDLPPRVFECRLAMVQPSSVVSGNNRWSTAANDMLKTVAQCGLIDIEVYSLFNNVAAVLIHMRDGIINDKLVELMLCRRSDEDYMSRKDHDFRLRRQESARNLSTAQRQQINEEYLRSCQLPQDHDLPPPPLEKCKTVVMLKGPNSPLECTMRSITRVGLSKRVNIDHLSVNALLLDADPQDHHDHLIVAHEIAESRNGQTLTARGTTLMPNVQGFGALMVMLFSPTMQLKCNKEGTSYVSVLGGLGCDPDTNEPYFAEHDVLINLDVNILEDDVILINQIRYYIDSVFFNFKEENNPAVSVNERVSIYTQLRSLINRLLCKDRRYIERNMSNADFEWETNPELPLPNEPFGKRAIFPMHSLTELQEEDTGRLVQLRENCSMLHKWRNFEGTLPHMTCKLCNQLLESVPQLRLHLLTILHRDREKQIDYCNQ

T3: GFP-Vas (Vasa with EGFP, endogenous knock-in, vas^EGFP.KI) (Drosophila (endogenous in ovaries)), P09052
T3 chain: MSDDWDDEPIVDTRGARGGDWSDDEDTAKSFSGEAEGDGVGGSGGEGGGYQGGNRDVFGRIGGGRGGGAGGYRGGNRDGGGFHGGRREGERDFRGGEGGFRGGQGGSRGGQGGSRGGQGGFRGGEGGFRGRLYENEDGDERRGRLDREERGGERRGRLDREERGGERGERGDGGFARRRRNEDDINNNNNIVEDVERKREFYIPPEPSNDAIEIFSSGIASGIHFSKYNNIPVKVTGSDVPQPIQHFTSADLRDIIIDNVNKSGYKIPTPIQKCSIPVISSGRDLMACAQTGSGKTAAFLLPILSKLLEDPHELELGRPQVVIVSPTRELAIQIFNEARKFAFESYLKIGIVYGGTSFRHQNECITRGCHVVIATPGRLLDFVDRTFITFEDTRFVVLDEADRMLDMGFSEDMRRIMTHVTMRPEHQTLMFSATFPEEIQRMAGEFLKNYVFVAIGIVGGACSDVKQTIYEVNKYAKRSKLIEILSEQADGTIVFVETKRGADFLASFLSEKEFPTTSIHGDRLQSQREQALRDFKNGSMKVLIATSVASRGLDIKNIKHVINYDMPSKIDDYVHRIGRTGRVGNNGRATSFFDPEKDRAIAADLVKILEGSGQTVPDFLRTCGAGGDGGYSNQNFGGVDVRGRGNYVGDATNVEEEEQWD


Assays:
Assay in all cases: co-IP
[1] = target: T1, GFP-Vas (Vasa with EGFP, endogenous knock-in, vas^EGFP.KI) (Drosophila (endogenous in ovaries))
[2] = target: T2, Spn-E-mKate2 (Spindle-E with mKate2, endogenous knock-in, spn-E^mKate2.KI) (Drosophila (endogenous in ovaries))
[3] = target: T3, GFP-Vas (Vasa with EGFP, endogenous …); details: remark: other sources report otherwise

| Binder | binding [1] | binding [2] | binding [3] |
| --- | --- | --- | --- |
| Ago3, endogenous (protein, UniProt Q7PLK0 1-867) MSGRGNLLSLFNKNAGNMGKSISSKDHEIDSGLDFNNSESSGERLLSSHNIETDLITTLQHVNISVGRGRARLIDTLKTDDHTSNQFITSESKENITKKTKGPESEAIASENGLFFPDLIYGSKGSSVNIYCNYLKLTTDESKGVFNYEVRFFPPIDSVHLRIKYLNDHKDKLGGTKTFDGNTLYLPILLPNKMTVFISKAEDVELQIRILYKKKEEMRNCTQLYNILFDRVMKVLNYVKFDRKQFDPSRPKIIPLAKLEVWPGYVTAVDEYKGGLMLCCDVSHRILCQKTVLEMLVDLYQQNVEHYQESARKMLVGNIVLTRYNNRTYKINDICFDQNPTCQFEIKTGCTSYVEYYKQYHNINIKDVNQPLIYSIKKSRGIPAERENLQFCLIPELCYLTGLRDEVRSDNKLMREIATFTRVSPNQRQMALNKFYENVSNTPAAQEILNSWGLSLTNNSNKISGRQMDIEQIYFSKISVSAGRSAEFSKHAVTNEMLKVVHLSKWIIIHLRNYRQAATSLLDNMKQACESLGMNISNPTMISLDHDRIDAYIQALRRNITMNTQMVVCICHNRRDDRYAAIKKICCSEIPIPSQVINAKTLQNDLKIRSVVQKIVLQMNCKLGGSLWTVKIPFKNVMICGIDSYHDPSNRGNSVAAFVASINSSYSQWYSKAVVQTKREEIVNGLSASFEIALKMYRKRNGKLPTNIIIYRDGIGDGQLYTCLNYEIPQFEMVCGNRIKISYIVVQKRINTRIFSGSGIHLENPLPGTVVDQHITKSNMYDFFLVSQLVRQGTVTPTHYVVLRDDCNYGPDIIQKLSYKLCFLYYNWAGTVRIPACCMYAHKLAYLIGQSIQRDVAEALSEKLFYL |  | binds |  |
| Ago3, endogenous, Q7PLK0 1-867 (protein) MSGRGNLLSLFNKNAGNMGKSISSKDHEIDSGLDFNNSESSGERLLSSHNIETDLITTLQHVNISVGRGRARLIDTLKTDDHTSNQFITSESKENITKKTKGPESEAIASENGLFFPDLIYGSKGSSVNIYCNYLKLTTDESKGVFNYEVRFFPPIDSVHLRIKYLNDHKDKLGGTKTFDGNTLYLPILLPNKMTVFISKAEDVELQIRILYKKKEEMRNCTQLYNILFDRVMKVLNYVKFDRKQFDPSRPKIIPLAKLEVWPGYVTAVDEYKGGLMLCCDVSHRILCQKTVLEMLVDLYQQNVEHYQESARKMLVGNIVLTRYNNRTYKINDICFDQNPTCQFEIKTGCTSYVEYYKQYHNINIKDVNQPLIYSIKKSRGIPAERENLQFCLIPELCYLTGLRDEVRSDNKLMREIATFTRVSPNQRQMALNKFYENVSNTPAAQEILNSWGLSLTNNSNKISGRQMDIEQIYFSKISVSAGRSAEFSKHAVTNEMLKVVHLSKWIIIHLRNYRQAATSLLDNMKQACESLGMNISNPTMISLDHDRIDAYIQALRRNITMNTQMVVCICHNRRDDRYAAIKKICCSEIPIPSQVINAKTLQNDLKIRSVVQKIVLQMNCKLGGSLWTVKIPFKNVMICGIDSYHDPSNRGNSVAAFVASINSSYSQWYSKAVVQTKREEIVNGLSASFEIALKMYRKRNGKLPTNIIIYRDGIGDGQLYTCLNYEIPQFEMVCGNRIKISYIVVQKRINTRIFSGSGIHLENPLPGTVVDQHITKSNMYDFFLVSQLVRQGTVTPTHYVVLRDDCNYGPDIIQKLSYKLCFLYYNWAGTVRIPACCMYAHKLAYLIGQSIQRDVAEALSEKLFYL |  |  | binds |

Results, then the binder that gave them:

| binding [1] | binding [2] | binding [3] | Binder |
| --- | --- | --- | --- |
| binds | binds |  | Piwi, endogenous (protein, UniProt Q9VKM1 1-843) MADDQGRGRRRPLNEDDSSTSRGSGDGPRVKVFRGSSSGDPRADPRIEASRERRALEEAPRREGGPTERKPWGDQYDYLNTRPAELVSKKGTDGVPVMLQTNFFRLKTKPEWRIVHYHVEFEPSIENPRVRMGVLSNHANLLGSGYLFDGLQLFTTRKFEQEITVLSGKSKLDIEYKISIKFVGFISCAEPRFLQVLNLILRRSMKGLNLELVGRNLFDPRAKIEIREFKMELWPGYETSIRQHEKDILLGTEITHKVMRTETIYDIMRRCSHNPARHQDEVRVNVLDLIVLTDYNNRTYRINDVDFGQTPKSTFSCKGRDISFVEYYLTKYNIRIRDHNQPLLISKNRDKALKTNASELVVLIPELCRVTGLNAEMRSNFQLMRAMSSYTRMNPKQRTDRLRAFNHRLQNTPESVKVLRDWNMELDKNVTEVQGRIIGQQNIVFHNGKVPAGENADWQRHFRDQRMLTTPSDGLDRWAVIAPQRNSHELRTLLDSLYRAASGMGLRIRSPQEFIIYDDRTGTYVRAMDDCVRSDPKLILCLVPNDNAERYSSIKKRGYVDRAVPTQVVTLKTTKNRSLMSIATKIAIQLNCKLGYTPWMIELPLSGLMTIGFDIAKSTRDRKRAYGALIASMDLQQNSTYFSTVTECSAFDVLANTLWPMIAKALRQYQHEHRKLPSRIVFYRDGVSSGSLKQLFEFEVKDIIEKLKTEYARVQLSPPQLAYIVVTRSMNTRFFLNGQNPPPGTIVDDVITLPERYDFYLVSQQVRQGTVSPTSYNVLYSSMGLSPEKMQKLTYKMCHLYYNWSGTTRVPAVCQYAKKLATLVGTNLHSIPQNALEKKFYYL |
|  |  | binds | Aub, endogenous, O76922 1-866 (protein) MNLPPNPVIARGRGRGRKPNNVEANRGFAPSLGQKSDPSHSEGNQASGGNGGGGDAQVGPSIEKSSLSAVQMHKSEGDPRGSVRGRRLITDLVYSRPPGMTSKKGVVGTHITVQANYFKVLKRPNWTIYQYRVDFTPDVEATRLRRSFLYEHKGILGGYIFDGTNMFCINQFKAVQDSPYVLELVTKSRAGENIEIKIKAVGSVQSTDAEQFQVLNLILRRAMEGLDLKLVSRYYYDPQAKINLENFRMQLWPGYQTSIRQHENDILLCSEICHKVMRTETLYNILSDAIRDSDDYQSTFKRAVMGMVILTDYNNKTYRIDDVDFQSTPLCKFKTNDGEISYVDYYKKRYNIIIRDLKQPLVMSRPTDKNIRGGNDQAIMIIPELARATGMTDAMRADFRTLRAMSEHTRLNPDRRIERLRMFNKRLKSCKQSVETLKSWNIELDSALVEIPARVLPPEKILFGNQKIFVCDARADWTNEFRTCSMFKNVHINRWYVITPSRNLRETQEFVQMCIRTASSMKMNICNPIYEEIPDDRNGTYSQAIDNAAANDPQIVMVVMRSPNEEKYSCIKKRTCVDRPVPSQVVTLKVIAPRQQKPTGLMSIATKVVIQMNAKLMGAPWQVVIPLHGLMTVGFDVCHSPKNKNKSYGAFVATMDQKESFRYFSTVNEHIKGQELSEQMSVNMACALRSYQEQHRSLPERILFFRDGVGDGQLYQVVNSEVNTLKDRLDEIYKSAGKQEGCRMTFIIVSKRINSRYFTGHRNPVPGTVVDDVITLPERYDFFLVSQAVRIGTVSPTSYNVISDNMGLNADKLQMLSYKMTHMYYNYSGTIRVPAVCHYAHKLAFLVAESINRAPSAGLQNQLYFL |

Reference: doi:10.1101/2022.07.12.499660
